In patent US20050002923A1 (published 2005):
These are yes or no findings as the source states them, for the method shown. Some results given as binding are weak or reduced against the parent protein; the word gives no strength.

Legend:
[1] = target: Bacillus caldotenax (Bca) UvrA protein (Bacillus caldotenax); test: coupled ATPase assay of UvrA + Δβh UvrB with UV-irradiated DNA
[2] = target: Bacillus caldotenax (Bca) UvrA protein (Bacillus caldotenax); test: gel mobility shift and competition with wt UvrB on F26-50 dsDNA, 55° C.

B1: β-hairpin deletion mutant of B. caldotenax UvrB (Δβh UvrB) (enzyme)
chain: VEGRFQLVAPYEPQGDQPQAIAKLVDGLRRGVKHQTLLGATGTGKTFTISNVIAQVNKPTLVIAHNKTLAGQLYSELKEFFPHNAVEYFVSYYDYYGAKINDEIDKLRHSATSALFERRDVIIVASVSCIYGLGSPEEYRELVVSLRVGMEIERNALLRRLVDIQYDRNDIDFRRGTFRVRGDVVEIFPASRDEHCIRVEFFGDEIERIREVDALTGEVLGEREHVAIFPASHFVTREEKMRLAIQNIEQELEERLAELRAQGKLLEAQRLEQRTRYDLEMMREMGFCSGIENYSRHLALRPPGSTPYTLLDYFPDDFLIIVDESHVTLPQLRGMYNGDRARKQVLVDHGFRLPSALDNRPLTFEEFEQKINQIIYVSATPGPYELEHSPGVVEQIIRPTGLLDPTIDVRPTKGQIDDLIGEIRERVERNERTLVTTLTKKMAEDLTDYLKEAGIKVAYLHSEIKTLERIEIIRDLRLGKYDVLVGINLLREGLDIPEVSLVAILDADKEGFLRSERSLIQTIGRAARNANGHVIMYADTITKSMEIAIQETKRRRAIQEEYNRKHGIVPRTVKKEIRDVIRATYAAEETEMYEAKPAAAMTKQEREELIRTLEAEMKEAAKALDFERAAQLRDIIFELKAEG
For B1, the binding [1] was “binds” and the binding [2] was “binds”.
